Measured values taken from article PMC8664922.
These are yes or no findings as the source states them, for the method shown. Binding seen in cells or lysates may run through a third protein. Some results given as binding are weak or reduced against the parent protein; the word gives no strength.

By UniProt entry, the sequences of proteins in these tests, tags left out.
UniProt Q8C3P7: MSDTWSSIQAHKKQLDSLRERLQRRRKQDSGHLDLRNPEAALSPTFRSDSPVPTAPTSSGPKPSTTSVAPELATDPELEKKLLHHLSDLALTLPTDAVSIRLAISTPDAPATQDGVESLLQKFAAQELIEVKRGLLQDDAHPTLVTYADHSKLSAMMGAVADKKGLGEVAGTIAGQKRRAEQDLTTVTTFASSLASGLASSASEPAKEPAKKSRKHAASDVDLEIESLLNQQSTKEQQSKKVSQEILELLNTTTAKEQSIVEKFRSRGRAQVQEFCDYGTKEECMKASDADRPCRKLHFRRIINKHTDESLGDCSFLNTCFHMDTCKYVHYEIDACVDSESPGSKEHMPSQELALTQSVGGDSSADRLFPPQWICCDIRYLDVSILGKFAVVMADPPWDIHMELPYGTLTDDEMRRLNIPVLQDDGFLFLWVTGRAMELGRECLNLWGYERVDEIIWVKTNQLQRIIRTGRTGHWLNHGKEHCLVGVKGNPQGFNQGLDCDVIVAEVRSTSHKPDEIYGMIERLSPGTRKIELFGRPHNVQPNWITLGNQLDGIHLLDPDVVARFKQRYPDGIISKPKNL
UniProt Q92769: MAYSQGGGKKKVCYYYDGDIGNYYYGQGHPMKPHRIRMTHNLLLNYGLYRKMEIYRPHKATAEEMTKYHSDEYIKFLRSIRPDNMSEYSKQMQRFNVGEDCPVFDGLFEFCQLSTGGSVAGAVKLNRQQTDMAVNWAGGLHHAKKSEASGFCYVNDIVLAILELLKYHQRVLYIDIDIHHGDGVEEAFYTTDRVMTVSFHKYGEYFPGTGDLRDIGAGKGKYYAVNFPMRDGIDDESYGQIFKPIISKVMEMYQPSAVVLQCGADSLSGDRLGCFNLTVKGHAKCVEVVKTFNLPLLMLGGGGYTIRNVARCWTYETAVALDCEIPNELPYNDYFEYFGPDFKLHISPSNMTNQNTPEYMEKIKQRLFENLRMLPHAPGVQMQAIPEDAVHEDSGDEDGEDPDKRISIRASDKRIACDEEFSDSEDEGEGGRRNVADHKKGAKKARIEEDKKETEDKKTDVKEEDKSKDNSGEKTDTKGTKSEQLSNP
UniProt P50750: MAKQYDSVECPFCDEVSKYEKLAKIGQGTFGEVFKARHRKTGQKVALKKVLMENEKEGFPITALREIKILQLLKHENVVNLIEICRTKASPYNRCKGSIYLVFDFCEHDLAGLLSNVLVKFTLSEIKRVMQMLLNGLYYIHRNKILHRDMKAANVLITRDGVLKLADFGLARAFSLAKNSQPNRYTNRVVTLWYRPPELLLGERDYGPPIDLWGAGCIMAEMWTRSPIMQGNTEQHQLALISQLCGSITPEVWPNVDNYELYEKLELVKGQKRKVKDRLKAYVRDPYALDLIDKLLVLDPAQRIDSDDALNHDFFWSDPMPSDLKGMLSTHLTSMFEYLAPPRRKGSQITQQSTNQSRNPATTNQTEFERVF
UniProt Q13547: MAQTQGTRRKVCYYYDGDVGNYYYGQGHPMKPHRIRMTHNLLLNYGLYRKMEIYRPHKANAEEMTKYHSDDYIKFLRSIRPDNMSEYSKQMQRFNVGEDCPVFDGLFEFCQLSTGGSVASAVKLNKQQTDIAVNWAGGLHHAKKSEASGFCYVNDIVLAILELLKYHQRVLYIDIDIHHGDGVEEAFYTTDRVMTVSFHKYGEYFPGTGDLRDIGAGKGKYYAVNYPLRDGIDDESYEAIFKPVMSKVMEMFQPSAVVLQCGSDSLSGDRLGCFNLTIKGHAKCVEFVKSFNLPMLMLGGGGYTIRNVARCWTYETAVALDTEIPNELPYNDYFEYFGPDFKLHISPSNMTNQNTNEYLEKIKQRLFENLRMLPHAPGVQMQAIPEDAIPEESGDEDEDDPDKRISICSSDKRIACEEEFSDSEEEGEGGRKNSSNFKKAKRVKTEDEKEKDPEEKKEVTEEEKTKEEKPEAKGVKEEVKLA
UniProt P70288: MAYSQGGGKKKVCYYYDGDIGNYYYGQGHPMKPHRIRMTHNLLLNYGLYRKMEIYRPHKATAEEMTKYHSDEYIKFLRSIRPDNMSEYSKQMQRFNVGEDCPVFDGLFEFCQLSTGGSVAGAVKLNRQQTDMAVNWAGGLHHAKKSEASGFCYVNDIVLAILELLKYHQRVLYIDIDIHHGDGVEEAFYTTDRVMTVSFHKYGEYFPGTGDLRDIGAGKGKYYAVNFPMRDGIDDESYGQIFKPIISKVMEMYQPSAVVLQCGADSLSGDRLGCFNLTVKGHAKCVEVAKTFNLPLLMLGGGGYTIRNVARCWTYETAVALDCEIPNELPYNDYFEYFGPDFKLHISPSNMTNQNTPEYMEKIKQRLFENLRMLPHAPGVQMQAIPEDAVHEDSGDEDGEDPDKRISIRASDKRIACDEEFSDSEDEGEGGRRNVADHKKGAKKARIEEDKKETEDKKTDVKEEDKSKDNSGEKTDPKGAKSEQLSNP
UniProt O09106: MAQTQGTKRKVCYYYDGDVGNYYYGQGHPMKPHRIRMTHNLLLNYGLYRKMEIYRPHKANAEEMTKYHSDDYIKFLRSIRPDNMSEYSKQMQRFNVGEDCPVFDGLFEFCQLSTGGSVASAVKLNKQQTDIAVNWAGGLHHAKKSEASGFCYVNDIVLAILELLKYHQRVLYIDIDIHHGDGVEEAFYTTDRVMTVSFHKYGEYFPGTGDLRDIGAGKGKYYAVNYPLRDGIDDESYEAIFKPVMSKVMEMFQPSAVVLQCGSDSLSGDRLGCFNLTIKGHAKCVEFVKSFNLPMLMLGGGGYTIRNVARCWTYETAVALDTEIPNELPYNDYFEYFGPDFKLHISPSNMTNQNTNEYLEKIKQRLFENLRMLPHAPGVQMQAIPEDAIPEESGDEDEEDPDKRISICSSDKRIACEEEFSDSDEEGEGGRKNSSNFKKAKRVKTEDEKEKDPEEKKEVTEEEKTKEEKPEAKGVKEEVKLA

Tests used:
[1] = target: Flag-METTL3 (methyltransferase like 3), expressed in HEK293T cells (UniProt Q8C3P7); experiment: co-IP; HA-HDAC1 or HA-HDAC2 vector co-transfected with or without Flag-METTL3 vector in HEK293T cells; lysates first incubated with DNase1 (200 U/ml) at 37 °C for 30 min; immunoprecipitated with Flag or HA beads at 4 °C for 2 h, immunoblotted with anti-HA or anti-Flag
[2] = target: Flag-METTL3 expressed in the livers of Mettl3-HOE mice (UniProt Q8C3P7); experiment: co-IP; liver extracts of control and Mettl3-HOE mice (8 weeks old; also Mettl3-HOE mice fed NC or MCD for 2 weeks); first incubated with DNase1 (200 U/ml) at 37 °C for 30 min; immunoprecipitated with Flag beads, immunoblotted with anti-HDAC1 or anti-HDAC2; interactions decreased in MCD-fed mice
[3] = target: Flag-METTL3 (methyltransferase like 3), expressed in HEK293T cells (UniProt Q8C3P7); experiment: co-IP; Myc-CDK9 vector co-transfected with or without Flag-METTL3 vector in HEK293T cells; total cell lysates immunoprecipitated with Flag beads at 4 °C for 2 h, immunoblotted with anti-Myc or anti-Flag

Row | Substance | binding [1] | binding [2] | also measured
1 | HA-HDAC2 (from UniProt Q92769 1-488) (enzyme) | binds | – | –
2 | Myc-CDK9 (from UniProt P50750 1-372) (enzyme) | – | – | binding [3]: binds
3 | HA-HDAC1 (from UniProt Q13547 1-482) (enzyme) | binds | – | –

Continued, in another order:

Row | binding [1] | binding [2] | Substance | also measured
4 | – | binds | HDAC2, endogenous in mouse liver (from UniProt P70288 1-488) (enzyme) | –
5 | – | binds | HDAC1, endogenous in mouse liver (from UniProt O09106 1-482) (enzyme) | –
